Measurements from patent US20110159515A1, “COMPOSITIONS AND METHODS FOR THE RAPID GROWTH AND DETECTION OF MICROORGANISMS” (SOLUS SCIENTIFIC SOLUTIONS LIMITED, priority 2008, published 2011).
At least one compound was matched to its structure with a doubt left.

System: Salmonella
Test: Growth response in tryptic soy broth with additive, A620 turbidity
Assay type: cell-based, Salmonella aberdeen

CCN(CC)c1ccc(C(=C2C=CC(=[N+](CC)CC)C=C2)c2ccccc2)cc1 [brilliant green]
inhibitory effect on Salmonella growth: NOT the Salmonella
